This experiment addresses Med17-HA (S. cerevisiae (endogenous in S288c)) (UniProt P32569). The experiment can be described thus: affinity purification with mass spectrometry; CoIP of Med17-HA on anti-HA magnetic beads from cryoground yeast lysate, 2 h at 4 °C; 20 mM HEPES pH 7.5, 300 mM KOAc, 10% glycerol, 0.01% NP-40, 6 mM MnSO4, 1 mM DTT, Cyanase nuclease; parallel control CoIP from 15N-labelled wild type cells, mixing after purification (MAP); GeLC-MS/MS, three biological replicates.

Sequences of proteins named here, by UniProt entry; tags and fusion partners are left off.
UniProt P32569: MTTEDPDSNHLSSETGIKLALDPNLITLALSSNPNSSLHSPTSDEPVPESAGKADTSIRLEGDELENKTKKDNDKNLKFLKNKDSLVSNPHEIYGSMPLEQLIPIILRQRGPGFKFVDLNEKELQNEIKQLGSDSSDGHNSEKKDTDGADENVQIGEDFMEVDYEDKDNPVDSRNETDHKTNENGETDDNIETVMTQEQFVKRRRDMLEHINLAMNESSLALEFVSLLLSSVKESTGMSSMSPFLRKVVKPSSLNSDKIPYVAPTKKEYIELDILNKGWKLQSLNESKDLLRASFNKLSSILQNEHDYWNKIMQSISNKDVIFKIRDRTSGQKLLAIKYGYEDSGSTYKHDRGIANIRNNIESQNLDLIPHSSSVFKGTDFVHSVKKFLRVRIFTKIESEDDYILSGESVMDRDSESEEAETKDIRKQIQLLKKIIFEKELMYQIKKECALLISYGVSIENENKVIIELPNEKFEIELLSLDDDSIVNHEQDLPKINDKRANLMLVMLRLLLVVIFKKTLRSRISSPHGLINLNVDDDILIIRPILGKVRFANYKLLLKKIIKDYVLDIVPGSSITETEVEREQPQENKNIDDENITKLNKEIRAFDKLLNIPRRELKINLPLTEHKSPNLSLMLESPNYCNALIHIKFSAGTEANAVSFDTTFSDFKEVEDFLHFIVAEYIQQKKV

No constants are given. Whether binding was seen depends on the method and setting. In cells and extracts the contact can be indirect. Here binding means that the protein was enriched with, or labelled near, the bait; the list need not be complete.

B1: Rt102 (protein, UniProt P53330 1-157)
chain: MDPQTLITKANKVSYYGNPTSKESWRYDWYQPSKVSSNVQQPQQQLGDMENNLEKYPFRYKTWLRNQEDEKNLQRESCEDILDLKEFDRRILKKSLMTSHTKGDTSKATGAPSANQGDEALSVDDIRGAVGNSEAIPGLSAGVNNDNTKESKDVKMN
For B1, the binding result is reported as “binds”.

B2: Swi1 (protein, UniProt P09547 1-1314)
chain: MDFFNLNNNNNNNNTTTTTTTTNNNNTNNNNTNNNNNPANNTNNNNSTGHSSNTNNNTNNNNTNTGASGVDDFQNFFDPKPFDQNLDSNNNNSNSNNNDNNNSNTVASSTNFTSPTAVVNNAAPANVTGGKAANFIQNQSPQFNSPYDSNNSNTNLNSLSPQAILAKNSIIDSSNLPLQAQQQLYGGNNNNNSTGIANDNVITPHFITNVQSISQNSSSSTPNTNSNSTPNANQQFLPFNNSASNNGNLTSNQLISNYAASNSMDRSSSASNEFVPNTSDNNNNSNNHNMRNNSNNKTSNNNNVTAVPAATPANTNNSTSNANTVFSERAAMFAALQQKQQQRFQALQQQQQQQQNQQQQNQQPQQQQQQQQNPKFLQSQRQQQQRSILQSLNPALQEKISTELNNKQYELFMKSLIENCKKRNMPLQSIPEIGNRKINLFYLYMLVQKFGGADQVTRTQQWSMVAQRLQISDYQQLESIYFRILLPYERHMISQEGIKETQAKRIFLQQFLQELLKKVQQQQQAAALANANNNINSASSAPTPAAPGASVPATAAPGTEAGIVPVSANTPKSLNSNININVNNNNIGQQQVKKPRKQRVKKKTKKELELERKEREDFQKRQQKLLEDQQRQQKLLLETKLRQQYEIELKKLPKVYKRSIVRNYKPLINRLKHYNGYDINYISKIGEKIDSNKPIFLFAPELGAINLHALSMSLQSKNLGEINTALNTLLVTSADSNLKISLVKYPELLDSLAILGMNLLSNLSQNVVPYHRNTSDYYYEDAGSNQYYVTQHDKMVDKIFEKVNNNATLTPNDSNDEKVTILVDSLTGNQLPTPTPTEMEPDLDTECFISMQSTSPAVKQWDLLPEPIRFLPNQFPLKIHRTPYLTSLKKIKDEIDDPFTKINTRGAEDPKVLINDQLSTISMILRNISFSDNNSRIMSRNFYLKRFISDLLWLVLIHPENFTCNRKILNFKKDLVIVLSNISHLLEIASSIDCLLILILVISFGQPKLNPMASSSSFGSESLTFNEFQLQWGKYQTFGVDILAKLFSLEKPNLNYFKSILLNKNTGNNLYDRNSNNNHKDKKLLRRLLNLYNDNNKNNNNRHNLLNDVVSFLFSAIPLQQVLSQSADPSLLIDQFSPVISQSLTSILVIVQKILPLSNEVFEISENNSDSNSNNNGNKDSSFNFNKNLPFVWLSSEENIGSGLLKLSEIILNINNSTSKNTLLQQQNYSKVLLPSINISCVQLIKCLVEKSICFENCLNNDPEILKKIASIPNLFPTDLEIFQLFTNPSVDIQIINQYQLLYNLKNDILTNLE
Regarding B2, the binding entry is “binds”.

B3: Rsc9 (protein, UniProt Q03124 1-581)
chain: MNSLASNTPLNGTPVSEAPATSSEPVNMFETMVANPIKVSRLQSNGVLTGPAANTKSIHYSLANFNVFQSLPKETARGVDDLTRMEMALLSGIPEEIKWSLKKYLTYSNKAPYMISLRTLPDLLPLFKTFILPLERIVEGLNKSSICDSKAMDSLQMGLNALLILRNLAQDTDSVQILVKDREIKSFILFILKKFQCVATGDNKWQLYEGNATFFNELTHYTLDLMEAISSYIAPAMKDDHYFQTLVSILNYTKDRYMVISILRSLSRLLVRSKANEESAADNLDHKTLSLIVSFLLLECDSELIIASLDFLYQYILPGSQRITELFKSKECSLILEATLPNLLSYNIATPDYHLLQKHKIRLIKRLKPPAPKEPPNLSEDLFQQLFKLNEPLRSTAWLRCCFEPVQEAEFTQISLWRSYESKFGQPVRESGRKLLPAVEFIKNVSNAFNNAAAIVITDPVTGKKRFVIKGIQPRFKALGIADGERESQVPISALKSKFLNDSKEITPARQNSIPEVKFPQELSDVSKVACTFLCLLSNDTDDGAGSAFCQRIRPLVLHKLADIPPLTLALSEYMENTSGL
With B3, the binding entry is listed as “binds”.

B4: Ies1 (protein, UniProt P43579 1-692)
chain: MGKRVYDPIHDTFQLREDNSDETKADSPMQSVKSGSQEEASPSSIQSETETVTTKSIPVIHEIEIDDKNDDDSTQSEEENTNILLNFEPSTVPEATGASTATGPVTTNTVRRKPKESNASKYNRHLKKPDGEPFNRKDIQFSFMQELLMDKRQIFTNVLKPLYKNSIVPINIDGDKLSINVTDKEYDARTFVFNDKLTFAQLYVLTIATSIKCSKILRDKLLLDQQVAFSTCVLALLVNIGRLNTTINFYLEMTSQLRTFHSVPVLQLHANDPKLLQDTPRLKSILKNLPWGNEQLSLMETYKKVDQNDGEVDTVNKFNIINMLFSICDNSGLIDKRFLSKYVEVESKAQEQDMVDEQNEVKETEAENEKQESKAAYATTLFDILDYSKYEPKDRSNILIWLLYIHLETNLSQEEVEESVRFFNGLEDGAPAGKFILRCTERSYDTDPEDELEFGANQRIKRREFMSKMEEGRKRERTNVTEVKKPSIGGDKSEEDGEGEDDKSEETVEETRSLLTPTPILESSSPMTLNRKKVTPQLPKVTPAAPTETEEEITSAAIIDKNDLNLTPLKKYNSSATVNKVDKLISLDLNKHVSENGKTQEEFLADLKKSQVPNRLKRRDIGLIKIFNEFEDIPVASVLGIRGKKRKKFKDNLLGFETDFMKNLGASKKVLLNKIERAEIDDEEATAMFKLE
In the case of B4, the binding result is on record as “binds”.

B5: Bdf1 (protein, UniProt P35817 1-686)
chain: MTDITPVQNDVDVNGNNVNDDVSSNLKRPIDQGDPSNGLAEEENPANNQLHLKKARLDGDALTSSPAGLAENGIEGATLAANGENGYNATGSGAEDEQQGLKKEEGGQGTKQEDLDENSKQELPMEVPKEPAPAPPPEPDMNNLPQNPIPKHQQKHALLAIKAVKRLKDARPFLQPVDPVKLDIPFYFNYIKRPMDLSTIERKLNVGAYEVPEQITEDFNLMVNNSIKFNGPNAGISQMARNIQASFEKHMLNMPAKDAPPVIAKGRRSSAQEDAPIVIRRAQTHNGRPKRTIHPPKSKDIYPYESKKPKSKRLQQAMKFCQSVLKELMAKKHASYNYPFLEPVDPVSMNLPTYFDYVKEPMDLGTIAKKLNDWQYQTMEDFERDVRLVFKNCYTFNPDGTIVNMMGHRLEEVFNSKWADRPNLDDYDSDEDSRTQGDYDDYESEYSESDIDETIITNPAIQYLEEQLARMKVELQQLKKQELEKIRKERRLARGSKKRGKRSKGRSGSKNASSKGRRDKKNKLKTVVTYDMKRIITERINDLPTSKLERAIDIIKKSMPNISEDDEVELDLDTLDNHTILTLYNTFFRQYESSSGASNGLDGTSGVTRDASSLSPTSAGSRKRRSKALSQEEQSRQIEKIKNKLAILDSASPLSQNGSPGQIQSAAHNGFSSSSDDDVSSESEEE
In the case of B5, the binding entry is listed as “binds”.

B6: Swc4 (protein, UniProt P53201 1-476)
chain: MSSSDIFDVLNIKQKSRSPTNGQVSVPSSSAANRPKPQVTGMQRELFNLLGENQPPVVIKSGNNFKEKMLSTSKPSPWSFVEFKANNSVTLRHWVKGSKELIGDTPKESPYSKFNQHLSIPSFTKEEYEAFMNENEGTQKSVESEKNHNENFTNEKKDESKNSWSFEEIEYLFNLCKKYDLRWFLIFDRYSYNNSRTLEDLKEKFYYTCRNYFKASDPSNPLLSSLNFSAEKEIERKKYLQRLLSRSAAEIAEEEALVVESKKFEMAAKRTLAERESLLRLLDSPHSDQTITQYLTSQGMSQLYNALLADKTRKRKHDLNIPENPWMKQQQQFAQHRQLQQLNVKKSEVKENLSPKKTKRQRQEMQTALKRKSESAYAEQLLKDFNSDERKALGVITHGEKLSPGVYLRSTKLSTFKPALQNKILAILQELSLPSRPVMPSFDVMERQEELLKKINTLIDLKKHVDKYEAGMSITK
As for B6, the binding result is recorded as “binds”.

B7: Gcr2 (protein, UniProt Q01722 1-534)
chain: MHHQTKLDVFIIRAYNLLSNESVISGASLQSVTNSPQTTTNTPSGMVNGAVGTGIANPTGLMGSDSTPNIDEIITSTGSNALTKTNSDSANGTPNGNSSSTSAISNASNPATTGNNASSSATSNGIYTQAQYSQLFAKISKLYNATLSSGSIDDRSTSPKSAIELYQRFQQMIKELELSFDASPYAKYFRRLDGRLWQIKTDSELENDELWRLVSMSIFTVFDPQTGQILTQGRRKGNSLNTSTKGSPSDLQGINNGNNNGNNGNIGNGSNIKNYGNKNMPNNRTKKRGTRVAKNAKNGKNNKNSNKERNGITDTSAFSNTTISNPGTNMLFDPSLSQQLQKRLQTLSQDVNSRSLTGYYTQPTSPGSGGFEFGLSHADLNPNASSNTMGYNTMSNNGSHSWKRRSLGSLDVNTLDDEAVEELLQLTNTSKRQRPMTTAAEGALINDGPDTNLNANNTQMKVDLNPSNSMGPIDTEAVIRPLKEAYDAIISEKGQRIVQLERELELQRQETQWLRKMLIEDMGCVRSMLRDLQR
Consider B7, for which the binding result is “binds”.

B8: Gcr1 (protein, UniProt P07261 1-785)
chain: MVCTSTSSNFYSIAQYILQSYFKVNVDSLNSLKLVDLIVDQTYPDSLTLRKLNEGATGQPYDYFNTVSRDADISKCPIFALTIFFVIRWSHPNPPISIENFTTVPLLDSNFISLNSNPLLYIQNQNPNSNSSVKVSRSQTFEPSKELIDLVFPWLSYLKQDMLLIDRTNYKLYSLCELFEFMGRVAIQDLRYLSQHPLLLPNIVTFISKFIPELFQNEEFKGIGSIKNSNNNALNNVTGIETQFLNPSTEEVSQKVDSYFMELSKKLTTENIRLSQEITQLKADMNSVGNVCNQILLLQRQLLSGNQAIGSKSENIVSSTGGGILILDKNSINSNVLSNLVQSIDPNHSKPNGQAQTHQRGPKGQSHAQVQSTNSPALAPINMFPSLSNSIQPMLGTLAPQPQDIVQKRKLPLPGSIASAATGSPFSPSPVGESPYSKRFKLDDKPTPSQTALDSLLTKSISSPRLPLSTLANTAVTESFRSPQQFQHSPDFVVGGSSSSTTENNSKKVNEDSPSSSSKLAERPRLPNNDSTTSMPESPTEVAGDDVDREKPPESSKSEPNDNSPESKDPEKNGKNSNPLGTDADKPVPISNIHNSTEAANSSGTVTKTAPSFPQSSSKFEIINKKDTKAGPNEAIKYKLSRENKTIWDLYAEWYIGLNGKSSIKKLIENYGWRRWKVSEDSHFFPTRRIIMDYIETECDRGIKLGRFTNPQQPREDIRKILVGDLEKFRINNGLTLNSLSLYFRNLTKNNKEICIFENFKNWNVRSMTEEEKLKYCKRRHNTPS
With B8, the binding entry is “binds”.

B9: Arp4 (protein, UniProt P80428 1-489)
chain: MSNAALQVYGGDEVSAVVIDPGSYTTNIGYSGSDFPQSILPSVYGKYTADEGNKKIFSEQSIGIPRKDYELKPIIENGLVIDWDTAQEQWQWALQNELYLNSNSGIPALLTEPVWNSTENRKKSLEVLLEGMQFEACYLAPTSTCVSFAAGRPNCLVVDIGHDTCSVSPIVDGMTLSKSTRRNFIAGKFINHLIKKALEPKEIIPLFAIKQRKPEFIKKTFDYEVDKSLYDYANNRGFFQECKETLCHICPTKTLEETKTELSSTAKRSIESPWNEEIVFDNETRYGFAEELFLPKEDDIPANWPRSNSGVVKTWRNDYVPLKRTKPSGVNKSDKKVTPTEEKEQEAVSKSTSPAANSADTPNETGKRPLEEEKPPKENNELIGLADLVYSSIMSSDVDLRATLAHNVVLTGGTSSIPGLSDRLMTELNKILPSLKFRILTTGHTIERQYQSWLGGSILTSLGTFHQLWVGKKEYEEVGVERLLNDRFR
For B9, the binding result is listed as “binds”.

For the origin of these results see paper PMC5327418.
